Test results from US20160340658A1, “PTERIS VITTATA PHYTASE NUCLEOTIDE AND AMINO ACID SEQUENCES AND METHODS OF USE” (UNIVERSITY OF FLORIDA RESEARCH FOUNDATION, INC., priority 2014, published 2016).
Where a name gives a salt, the structure may show the parent alone.

Tested on: Pteris vittata
Type: in vivo

Row | SMILES | PV biomass compared to the Pi treatment (0.6 mM, 40 d) | PV growth (fresh weight) (in vivo)
1 | O=P(O)(O)OC1C(OP(=O)(O)O)C(OP(=O)(O)O)C(OP(=O)(O)O)C(OP(=O)(O)O)C1OP(=O)(O)O (centres unmarked) [P6, myo-inositol hexaphosphoric acid dodecasodium salt] | equivalent | 
2 | O=P(O)(O)O [Pi, phosphate] |  | 115 mg
